PubChem BioAssay AID602203 | INSERM | 2012
Aim: 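Genes whose knock-down alters cisplatin killing of lung cancer cells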 (follow-up of hits). System: human A549 lung cancer cells. Knock-down reagent: siRNA pair against human genes. Treatment: cisplatin at a dose killing half of control-siRNA cells, given 48 h after transfection. Measurement: 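Cisplatin at a dose killing 50% of control cells, 48 h post-transfection; each siRNA +1 protective, -1 sensitizing, 0 if toxic (LDH) or antiproliferative (WST-1); per-gene sum and mean death change versus control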. Scale: summed siRNA score for cisplatin death: higher = more siRNAs reduced cisplatin-induced cell death; change in cisplatin death versus control: higher = fewer cells died than in control. Hit rule: In these data the active calls have summed siRNA score for cisplatin death at about -3 or lower, or at about 3 or higher.
Here is an unselected part of 999 deposited reagents. Over the whole deposit, 85 (8.5%) were called active. 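Unclear how single-siRNA scores of -1, 0 or +1 give the printed -4 to 4 range; calls lie near -3 or 3 and beyond.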 Entries without a mark were called inactive. The record does not give: the amount of reagent, the time to read-out, the dose of the treatment.

gene knocked down	summed siRNA score for cisplatin death	change in cisplatin death versus control (percentage points)
SIX2	0	
LAD1	1	
CAPN7	-1	
LOC440778	2	
GTF2H4	-2	
KLF13	0	
STAMBPL1	-1	
USP32P2	0	
RUFY4	-1	
FLJ40288	2	
ECH1	1	
RFC1	-2	
FSAF1	-2	
IFNG	-2	
FBXW4P1	1	
LOC401191	1	
SSR1	0	
GATM	0	
PIP5KL1	1	
NPEPPS	-1	
CREM	-1	
ERFL	-2	
KRTAP12-4	0	
TIMM8B	-1	
STK38	-1	
ADCYAP1R1	-1	
WASF1	0	
PKN3	1	
MRPL43	1	
ARL4AP1	0	
NANOS1	-3 (active)	-12
NR3C2	0	
LOC285588	1	
LOC440287	1	
ANAPC1P6	0	
PIGR	-1	
NCOA7	0	
ACSL3	1	
MRPS27	-1	
OXT	1	
KU-MEL-3	1	
SIRT4	1	
PDXK	3 (active)	4.53
CENPX	2	
CFAP410	3 (active)	8.74
GPR148	1	
STK39	2	
LOC440445	-1	
TMEM184B	1	
SGK3	1	
MTMR4	0	
VRK2	-1	
TSPAN33	-1	
MGC48637	0	
OSBPL5	2	
UPRT	1	
SDR9C7	1	
UBE3C	-1	
TPCN1	0	
HOXC9	-1	
KDM4B	0	
CADM2	0	
PCDHGA12	-1	
OSTCP1	-3 (active)	-8.85
PLCXD3	1	
DCLRE1A	-1	
FREM2	1	
HMCN1	0	
RCVRN	-2	
LOC440611	3 (active)	8.1
TSSK6	0	
TOPORS	0	
ITGB6	-4 (active)	-10.7
TMEM187	-1	
LOC402123	3 (active)	9.13
SLC25A36	0	
NR1I3	0	
TXNRD2	-1	
ARIH1	-1	
RSPH9	0	
LOC390245	0	
LOC442265	-1	
OR51B5	1	
GPHRB	-1	
LOC441115	3 (active)	10.3
DEFB1	-2	
RTEL1	0	
CLPP	0	
DDN	1	
GPR4	0	
DNM1P28	1	
LOC388406	1	
CXCL16	-2	
DSCR9	0	
OAF	1	
OR6W1P	0	
MMP25	0	
ATL1	-1	
PSMD13	1	
CUL1	-2	
SCAF4	1	
ALPK3	0	
SLC44A5	0	
MBOAT2	0	
C3orf62	0	
LOC441969	1	
SLF2	-1	

Reagents listed so far with an active call, once more:
gene knocked down	summed siRNA score for cisplatin death	change in cisplatin death versus control (percentage points)
NANOS1	-3 (active)	-12
PDXK	3 (active)	4.53
CFAP410	3 (active)	8.74
OSTCP1	-3 (active)	-8.85
LOC440611	3 (active)	8.1
ITGB6	-4 (active)	-10.7
LOC402123	3 (active)	9.13
LOC441115	3 (active)	10.3
